TEAD-luciferase reporter activity data for 25 molecules are collected here from the supplement of paper PMC10735217.

The subject of this test is HEK293A TEAD-LUC reporter. The test is described as follows: TEAD-luciferase reporter activity (YAP activation), robust Z score vs plate; higher = stronger YAP/TEAD activation. The settings on record: 24 h. (In general: A reporter such as luciferase makes a cellular process visible.)

“And” between values parts separate entries of the source, which are not always exact repeats. Equal entries are not always repeated. The list shows a part of the results. This data set is noisy: repeats of one test often differ as much as different tests do.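 Human kidney-derived cells stably carry a construct in which eight TEAD-binding elements drive luciferase, measured by luminescence in a drug-repurposing library screen. A hit is any compound whose signal exceeds the plate mean by more than five robust Z scores.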

Regarding `CCOC(=O)C(CCc1ccccc1)NC1CCc2ccccc2N(CC(=O)O)C1=O` (centres undefined) [benazepril], the TEAD-luciferase reporter activity is, setting by setting: (compound concentration: 200 nM) inactive: 1.75; (compound concentration: 2 uM) inactive: 0.0437; (compound concentration: 10 uM) inactive: -0.907.

For the molecule `O=P([O-])([O-])[O-]` [tri-Potassium orthophosphate], the TEAD-luciferase reporter activity by setting is: (compound concentration: 200 nM) inactive: 0.271; (compound concentration: 2 uM) inactive: -0.746; (compound concentration: 10 uM) inactive: 1.28.

On to `Cn1cc(C(=O)O)c2ccc(N3CCC(OCc4c(-c5c(Cl)cccc5Cl)noc4C4CC4)CC3)cc21`, for which the TEAD-luciferase reporter activity reads like this: (compound concentration: 200 nM) inactive: 3.54; (compound concentration: 2 uM) inactive: 0.033; (compound concentration: 10 uM) inactive: -0.573.

For the molecule `O=C1NCCCN1CCCNCC1CCc2ccccc2O1` (centres undefined), the TEAD-luciferase reporter activity runs as follows: (compound concentration: 200 nM) inactive: -0.528; (compound concentration: 2 uM) inactive: -0.496; (compound concentration: 10 uM) inactive: -0.49.

With `CNc1nc2c(Cc3cccnc3)c(C)c(O)c(C)c2s1`, the TEAD-luciferase reporter activity by setting is: (compound concentration: 200 nM) inactive: 1.35; (compound concentration: 2 uM) inactive: 0.00484; (compound concentration: 10 uM) inactive: 1.48.

Take `CCOCc1nc2c(N)nc3ccccc3c2n1CC(C)(C)O` [resiquimod]: the TEAD-luciferase reporter activity was inactive: -0.662 (compound concentration: 200 nM), inactive: -0.728 (compound concentration: 2 uM) and inactive: -1.04 (compound concentration: 10 uM).

Regarding `COc1cc(/C=C2\CCCN([C@@H](C)c3ccc(F)cc3)C2=O)ccc1-n1cnc(C)c1`, the TEAD-luciferase reporter activity by setting is: (compound concentration: 200 nM) inactive: -0.721; (compound concentration: 2 uM) inactive: 1.37; (compound concentration: 10 uM) inactive: -0.871.

As for `CC(=O)O[C@]1(C(C)=O)CC[C@H]2[C@@H]3C=C(Cl)C4=CC(=O)[C@@H]5C[C@@H]5[C@]4(C)[C@H]3CC[C@@]21C` [cyproterone acetate, Barr], the TEAD-luciferase reporter activity is, setting by setting: (compound concentration: 200 nM) inactive: 1.3; (compound concentration: 2 uM) inactive: -0.411; (compound concentration: 10 uM) inactive: -0.88.

`CO[C@]1(C(=O)N[C@@H]2CC[C@@]3(C)[C@@H](CC[C@@H]4[C@@H]3CC[C@]3(C)[C@@H]([C@H](C)CCCC(C)C)CC[C@@H]43)C2)C[C@H](O)[C@@H](NC(C)=O)C([C@H](O)[C@H](O)CO)O1` (some centres undefined) [coleneuramide]: the TEAD-luciferase reporter activity was inactive: -1.22 (compound concentration: 200 nM), inactive: -1.5 (compound concentration: 2 uM) and inactive: 0.907 (compound concentration: 10 uM).

For `NS(=O)(=O)c1ccc(Oc2ccc(NC(=O)N[C@H]3[C@@H]4COc5c(F)ccc(F)c5[C@@H]43)nc2)cc1`, the TEAD-luciferase reporter activity reads like this: (compound concentration: 200 nM) inactive: -1.65; (compound concentration: 2 uM) inactive: 0.398; (compound concentration: 10 uM) inactive: -1.44.

Turning to `O=C(Nc1cc(Cl)cc(Cl)c1O)c1c(O)c(Cl)cc(Cl)c1Cl`, the TEAD-luciferase reporter activity is inactive: -2.78 (compound concentration: 200 nM), inactive: -1.42 (compound concentration: 2 uM) and inactive: 1.45 (compound concentration: 10 uM).

On to `COC(=O)c1cccc(CCN(C)Cc2ccccc2)c1`, for which the TEAD-luciferase reporter activity is inactive: -0.646 (compound concentration: 200 nM), inactive: 0.158 (compound concentration: 2 uM) and inactive: -0.347 (compound concentration: 10 uM).

For `Cc1ncc([N+](=O)[O-])n1CCCN1CCNCC1`, the TEAD-luciferase reporter activity by setting is: (compound concentration: 200 nM) inactive: -0.808; (compound concentration: 2 uM) inactive: -0.533; (compound concentration: 10 uM) inactive: 0.743.

`ClCCCN1CCN(c2ccc3ccccc3n2)CC1`: the TEAD-luciferase reporter activity runs as follows: (compound concentration: 200 nM) inactive: 1.08; (compound concentration: 2 uM) inactive: -0.535; (compound concentration: 10 uM) inactive: 2.33.

On to `O=C(Nc1ccc(OC(F)(F)Cl)cc1)c1cnc(N2CC[C@@H](O)C2)c(-c2cc[nH]n2)c1`, for which the TEAD-luciferase reporter activity reads like this: (compound concentration: 200 nM) inactive: 1.46; (compound concentration: 2 uM) inactive: -0.379; (compound concentration: 10 uM) inactive: 0.655.

In the case of `COc1ccc(CC(=O)N2Cc3ccccc3CC23CCCN(C(C)=O)C3)cc1` (centres undefined), the TEAD-luciferase reporter activity is, setting by setting: (compound concentration: 200 nM) inactive: -0.866; (compound concentration: 10 uM) inactive: -0.87.

Regarding `CC(=O)N[C@@H](CCC(=O)C=[N+]=[N-])C(=O)O`, the TEAD-luciferase reporter activity (compound concentration: 2 uM) was inactive: 0.0157.

On to `CC(C)C[C@@H]1NC(=O)[C@H](Cc2ccccc2)NC(=O)[C@H](CCN)NC(=O)[C@@H](NC(=O)[C@H](CCN)NC(=O)[C@@H](NC(=O)[C@H](CCN)NC(=O)Nc2ccccc2Cl)[C@@H](C)O)CCNC(=O)[C@H]([C@@H](C)O)NC(=O)[C@H](CCN)NC(=O)[C@H](CCN)NC1=O`, for which the TEAD-luciferase reporter activity is, setting by setting: (compound concentration: 200 nM) inactive: -0.992; (compound concentration: 2 uM) inactive: -0.863; (compound concentration: 10 uM) inactive: 0.242.

With `COC(=O)OC[C@H]1O[C@@H](Oc2cc(C)cc(O)c2C(=O)CCc2ccc3occc3c2)[C@H](O)[C@@H](O)[C@@H]1O`, the TEAD-luciferase reporter activity was inactive: 0.84 (compound concentration: 200 nM), inactive: -0.952 (compound concentration: 2 uM) and inactive: 0.634 (compound concentration: 10 uM).

Regarding `COC(=O)N1C[C@@H](c2ccc(OC)c(OC3CCCC3)c2)[C@](C)(C(C)=O)C1`, the TEAD-luciferase reporter activity was inactive: -1.05 (compound concentration: 200 nM); inactive: -0.687 and inactive: -1.02 (compound concentration: 2 uM); inactive: 0.16 (compound concentration: 10 uM).

As to `C=C(C)CNc1ccc(C(C)C(=O)O)cc1` (centres undefined) [alminoprofen], the TEAD-luciferase reporter activity is, setting by setting: (compound concentration: 200 nM) inactive: 0.44; (compound concentration: 2 uM) inactive: 2.33; (compound concentration: 10 uM) inactive: 0.43.

As to `CCc1nn2c(-c3c(OC)cc(COC)cc3OC)cccc2c1N(CC1CCOCC1)CC1CC1`, the TEAD-luciferase reporter activity is active: 5.07 (compound concentration: 200 nM), inactive: -0.769 (compound concentration: 2 uM) and inactive: 0.373 (compound concentration: 10 uM).

For `CC[O-]->[Ti]12(<-[O]=C(C)[CH-]C(=[O]->1)c1ccccc1)(<-[O]=C(C)[CH-]C(=[O]->2)c1ccccc1)<-[O-]CC` [budotitane], the TEAD-luciferase reporter activity (compound concentration: 200 nM) was inactive: -1.24, the TEAD-luciferase reporter activity (compound concentration: 2 uM) was inactive: -0.729 and the TEAD-luciferase reporter activity (compound concentration: 10 uM) is inactive: 1.58.

On to `O=C([O-])[O-]` [lithium carbonate], for which the TEAD-luciferase reporter activity (compound concentration: 2 uM) was inactive: 1.88.

Regarding `O=C([O-])[O-]` [carbonic acid], the TEAD-luciferase reporter activity runs as follows: (compound concentration: 200 nM) inactive: 0.00772; (compound concentration: 10 uM) inactive: 2.11.
